The assay has as its target 2xFLAG-tagged FRH (FRQ-Interacting RNA-helicase) (Neurospora crassa). Description: co-IP.

No constants are given. Whether binding was seen depends on the method and setting. Binding seen in cells or lysates may run through a third protein. A result given as binding can be weak or reduced; the word gives no strength.

B1: FRQ (Frequency), hypophosphorylated, native (protein, UniProt P19970 1-989)
chain: MADSGDKSQGMRPPPFDSRGHPLPRRASPDKSITLENHRLARDTSSRVTSSSALGVTESQPQLKSSPTRRNSSGESEPTNWFNQSNRNPAAAFHDESHIMEVDPPFYQKETDSSNEESRYPPGRNPVHPPGGVQLPGFRPVAAHSSAADDYRSVIDDLTVENKRLKEELKRYKQFGSDVMRKEKLFEIKVHGLPRRKKRELEATLRDFAASLGDSSESTSQRRKTGRHGTAVHSSGVSLSKHDSSSSSRSRPVDSAYNSMSTGRSSHAPHSSGPSLGRPSLTRAKSVGTQKVENYLRDTPDGLLPHHIVMTDKEKKKLVVRRLEQLFTGKISGRNMQRNQSMPSMDAPLAPEGTNMAPPRPPPEGLREACIQLQDGDNPRKNRSSKDNGSASNSGGDQTELGGTGTGSGDGSGSGGRTGNNTSPPGAIAPDQRPTRPRDLDPDRVQIPSENMDYIRHLGLVSPEFLQGSRTSYQDVAPDAEGWVYLNLLCNLAQLHMVNVTPSFIRQAVSEKSTKFQLSADGRKIRWRGGTDGTKFSSDSSEDKSQQSPMTEDTEDGSDKNGRRKKRKTQQASSEIGRFGPSRSPSDTFHYKPMFVHRNSSSIETSLEESMSQGSEDAVDESNMGNSKWDFSGSGTTQQRRKRRYDGAIVYYTGAPFCTDLSGDPGDMSPTAQMTAGREVEGSGSGDEVEHVLQRTLSGSSLPIRPLSDDRARVAEVLDFDPGNPPELVADDGSSPNDEDFVFPWCEDPAKVRIQPIAKEVMEPSGLGGVLPDDHFVMLVTTRRVVRPILQRQLSRSTTSEDTAEFIAERLAAIRTSSPLPPRSHRLTVAPLQVEYVSGQFRRLNPAPLPPPAIFYPPFSTDSSWDDGDDLASDDEEVEEVEEDSYSEGQISRRANPHFSDNNTYMRKDDLAFDTETDVRMDSDDNRLSDSGHNMRAMMPRAEAVDGDDSPLAAVTGKEVDMLHTGSSVATAGGAESGYSSSMEDVSSS
modifications: hypophosphorylated (sites not given)
For B1, the binding result is listed as “binds”.

B2: FRQ (Frequency), hyperphosphorylated in vitro by CK1a (protein, UniProt P19970 1-989)
chain: MADSGDKSQGMRPPPFDSRGHPLPRRASPDKSITLENHRLARDTSSRVTSSSALGVTESQPQLKSSPTRRNSSGESEPTNWFNQSNRNPAAAFHDESHIMEVDPPFYQKETDSSNEESRYPPGRNPVHPPGGVQLPGFRPVAAHSSAADDYRSVIDDLTVENKRLKEELKRYKQFGSDVMRKEKLFEIKVHGLPRRKKRELEATLRDFAASLGDSSESTSQRRKTGRHGTAVHSSGVSLSKHDSSSSSRSRPVDSAYNSMSTGRSSHAPHSSGPSLGRPSLTRAKSVGTQKVENYLRDTPDGLLPHHIVMTDKEKKKLVVRRLEQLFTGKISGRNMQRNQSMPSMDAPLAPEGTNMAPPRPPPEGLREACIQLQDGDNPRKNRSSKDNGSASNSGGDQTELGGTGTGSGDGSGSGGRTGNNTSPPGAIAPDQRPTRPRDLDPDRVQIPSENMDYIRHLGLVSPEFLQGSRTSYQDVAPDAEGWVYLNLLCNLAQLHMVNVTPSFIRQAVSEKSTKFQLSADGRKIRWRGGTDGTKFSSDSSEDKSQQSPMTEDTEDGSDKNGRRKKRKTQQASSEIGRFGPSRSPSDTFHYKPMFVHRNSSSIETSLEESMSQGSEDAVDESNMGNSKWDFSGSGTTQQRRKRRYDGAIVYYTGAPFCTDLSGDPGDMSPTAQMTAGREVEGSGSGDEVEHVLQRTLSGSSLPIRPLSDDRARVAEVLDFDPGNPPELVADDGSSPNDEDFVFPWCEDPAKVRIQPIAKEVMEPSGLGGVLPDDHFVMLVTTRRVVRPILQRQLSRSTTSEDTAEFIAERLAAIRTSSPLPPRSHRLTVAPLQVEYVSGQFRRLNPAPLPPPAIFYPPFSTDSSWDDGDDLASDDEEVEEVEEDSYSEGQISRRANPHFSDNNTYMRKDDLAFDTETDVRMDSDDNRLSDSGHNMRAMMPRAEAVDGDDSPLAAVTGKEVDMLHTGSSVATAGGAESGYSSSMEDVSSS
modifications: hyperphosphorylated by recombinant CK1a and ATP (sites not given)
In the case of B2, the binding entry is reported as “no binding”.

For the origin of these results see article doi:10.1101/2025.05.13.653691.
